Measured values: PubChem BioAssay AID493014 (National Center for Advancing Translational Sciences (NCATS), 2011)
This is one part of the list. These are further read-outs of the screen, such as a control signal, another cell line or another target. No call is given for them. Compounds called inactive in the main read-out are mostly missing here. Potencies come from curve fits of mixed quality, noted in brackets.

Assay: qHTS Assay to Find Inhibitors of Chronic Active B-Cell Receptor Signaling
Settings: ABC-DLBCL IkBa-CBG/CBR reporter, luminescence ratio (green luciferase fused to IkBa over red control in TMD8 lymphoma cells), 4 h
Method in brief: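 Concentration-response series (up to 46 uM) were applied to TMD8 dual-reporter cells for 4 h at 37C with doxycycline. Green/red ratio, after filter-overlap correction, defined %Activity; red signal alone was normalised to basal cells and zero luminescence.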

[1] = measured here: CBR red luminescence, cell number
[2] = measured here: IkBa-CBG green luminescence

| Structure (SMILES) | AC50 [1] | AC50 [2] |
| --- | --- | --- |
| CCCCSc1cc(=O)[nH]c(N)n1 | 35.5 µM [falling, partial curve, poor fit] | – |
| O=C1c2ccccc2S(=O)(=O)N1CC1CC(c2ccccc2Cl)=NO1 (centres undefined) | 3.26 µM [rising, full curve, poor fit] | – |
| O=C(CSC1=NS(=O)(=O)c2ccccc2N1)Nc1cccc(F)c1 | 9.2 µM [falling, partial curve, poor fit] | – |
| O=C(Nc1ccc(Cl)cc1)c1cc(S(=O)(=O)N2CCOCC2)cs1 | 10.3 µM [falling, partial curve] | – |
| CC(O)CNCCCCOc1ccc(OCc2ccccc2)cc1 (centres undefined) | 35.5 µM [falling, single point] | – |
| O=C(OCn1ncc(Cl)c(Cl)c1=O)c1ccc(F)cc1 | 10 µM [falling, partial curve, poor fit] | – |
| COc1cc(OC)c(OC)cc1CCC(C)NCCC(c1ccccc1)c1ccccc1 (centres undefined) | 11.2 µM [falling, partial curve, poor fit] | – |
| CC(=O)NC(Cc1ccccc1)C(=O)NC1CCN(c2ncccc2[N+](=O)[O-])CC1 (centres undefined) | 0.82 µM [rising, full curve, poor fit] | – |
| CSc1cccc2sc(NC(=O)C3=COCCO3)nc12 | 29.1 µM [falling, single point] | – |
| CCOC(=O)CN1C(=O)Nc2ccc(Br)cc2C1c1ccccc1 (centres undefined) | 0.794 µM [rising, full curve, poor fit] | – |
| Cc1ccccc1NC(=O)CCCCC(=O)Nc1ccccc1C | 3.16 µM [falling, partial curve, poor fit] | – |
| Cc1[nH]c2ccc(F)cc2c1CCN(Cc1ccco1)C(=S)NC(C)(C)C | 35.5 µM [falling, single point] | – |
| Cc1cc(=O)[nH]c(SCc2nnc(-c3ccccc3)o2)n1 | 29.1 µM [falling, single point] | – |
| COc1ccc(N2CCN(c3nc4ccc(C)cn4c(=O)c3C=O)CC2)cc1 | 0.355 µM [rising, partial curve, poor fit] | 3.16 µM [falling, single point] |
| CCN(CC(=O)Nc1c(F)cccc1F)C(=O)CN1C(=O)c2ccccc2C1=O | 29.1 µM [rising, single point] | – |
| O=C(CSc1nnc(NC(=O)C2CC2)s1)Nc1ccccc1Cl | 12.6 µM [rising, single point] | – |
| COc1ccc(/C=C/C(=O)c2cc(F)ccc2OC(=O)c2ccccc2C)cc1OC | 9.2 µM [rising, single point] | 5.8 µM [falling, full curve] |
| Cc1ccc(Nc2nnc(C3C(=O)N(C)C4(C)CC3c3cc(Br)ccc3O4)s2)cc1 (centres undefined) | 9.2 µM [falling, partial curve, poor fit] | – |
| CN1CCC(N(C)S(=O)(=O)c2ccc(NC(=O)c3ccc(S(=O)(=O)N(C)C)cc3)cc2)CC1 | 23.1 µM [falling, single point] | – |
| COC(=O)c1ccc(CN2C(=O)NC(Cc3c[nH]c4ccccc34)C2=O)cc1 (centres undefined) | 12.6 µM [falling, single point] | – |
| O=C(CNC(=O)c1cccs1)NCC(=O)OCC(=O)c1ccccc1 | 0.282 µM [rising, full curve] | – |

| Structure (SMILES) | AC50 [1] | AC50 [2] |
| --- | --- | --- |
| CCOC(=O)C1CCCN(C(=O)CNC(=O)Cn2ccc3ccccc3c2=O)C1 (centres undefined) | 0.731 µM [rising, full curve, poor fit] | – |
| OC1CCCN(c2c3c(nc4cc(-c5cccc(Cl)c5)nn24)CCC3)C1 (centres undefined) | 2.31 µM [rising, partial curve, poor fit] | – |
| CCc1nc(SCc2ccccn2)[nH]c(=O)c1C | 0.794 µM [falling, full curve, poor fit] | – |
| O=C(CCC(=O)c1cccs1)c1cccs1 | 16.4 µM [falling, partial curve, poor fit] | – |
| Cc1ccccc1C(=O)NNC1CC(=O)N(c2ccc3c(c2)OCCO3)C1=O (centres undefined) | 18.4 µM [falling, partial curve] | – |
| COc1ccccc1N(O)C1CC(=O)N(c2ccc(F)cc2)C1=O (centres undefined) | 13 µM [falling, partial curve, poor fit] | – |
| C=CCNc1sc(C(=O)C2CC2)c(N)c1C#N | 1.84 µM [rising, full curve, poor fit] | – |
| O=C(Nc1nnc(-c2ccco2)o1)c1cccc(Cl)c1 | 5.62 µM [falling, full curve] | – |
| O=C(CCC(=O)c1ccc(F)cc1)Nc1cccc(S(=O)(=O)Nc2cccc(Cl)c2)c1 | 23.1 µM [falling, partial curve] | – |
| CCOc1ccc(N2C(=O)S/C(=C\c3ccc(O)c(OC)c3)C2=O)cc1 | 11.2 µM [rising, partial curve, poor fit] | – |
| Cc1nnc(OCc2nc3ccccc3n2C)c2ccccc12 | 8.2 µM [falling, partial curve] | – |
| COc1ccc(Nc2ncnc3sc(C)cc23)cc1 | 0.891 µM [rising, full curve, poor fit] | – |
| CCc1ccc(NC(=S)N(CCOC)C2CCN(C(C)=O)CC2)cc1 | 22.4 µM [falling, single point] | – |
| COc1cccc(CN(C(=O)/C=C/c2ccc(Cl)cc2)C2CCS(=O)(=O)C2)c1 (centres undefined) | 0.447 µM [rising, full curve, poor fit] | – |
| COc1ccc2c(-c3ccccc3)cc(=O)[nH]c2c1 | 1.64 µM [rising, partial curve, poor fit] | – |
| Nc1nc(CSc2ccccc2)nc(N2CCCCC2)n1 | 0.501 µM [rising, full curve, poor fit] | – |
| O=C(CSc1nnc2ccc(-c3ccncc3)nn12)Nc1ccc(F)cc1 | 14.6 µM [falling, partial curve, poor fit] | – |
| O=C(C1=C[C@@H](C2CCCCC2)C[C@@H](OCc2ccc(CO)cc2)O1)N1CCN(Cc2ccc3c(c2)OCO3)CC1 | 11.2 µM [falling, single point] | – |
| Cc1ccc(Nc2cc(C(=O)NCCCN3CCOCC3)c3ccccc3n2)c(C)c1 | 6.31 µM [falling, full curve] | 12.6 µM [rising, partial curve, poor fit] |
| O=C(Nc1cccnc1)c1ccc2ccccc2c1O | 8.91 µM [falling, partial curve] | – |
| Clc1ccccc1-c1ccc2ncnc(NCc3cccs3)c2c1 | 23.1 µM [falling, single point] | 29.1 µM [rising, partial curve, poor fit] |

A draw from above in order of formula weight, smallest number first.

| Structure (SMILES) | AC50 [1] | AC50 [2] |
| --- | --- | --- |
| O=C(Nc1ccc(Cl)cc1)c1cc(S(=O)(=O)N2CCOCC2)cs1 | 10.3 µM [falling, partial curve] | – |
| O=C(CCC(=O)c1ccc(F)cc1)Nc1cccc(S(=O)(=O)Nc2cccc(Cl)c2)c1 | 23.1 µM [falling, partial curve] | – |
| Cc1ccc(Nc2nnc(C3C(=O)N(C)C4(C)CC3c3cc(Br)ccc3O4)s2)cc1 (centres undefined) | 9.2 µM [falling, partial curve, poor fit] | – |
| CN1CCC(N(C)S(=O)(=O)c2ccc(NC(=O)c3ccc(S(=O)(=O)N(C)C)cc3)cc2)CC1 | 23.1 µM [falling, single point] | – |

Further results follow:

| Structure (SMILES) | AC50 [1] | AC50 [2] |
| --- | --- | --- |
| Oc1cccc2ccc(/C=C/c3cccs3)nc12 | 29.1 µM [falling, single point] | 20.6 µM [falling, single point] |
| C=CCNC(=S)NNC(=O)COc1c(Cl)cc(Cl)cc1Cl | 29.1 µM [falling, single point] | 18.4 µM [falling, single point] |
| O=C(CCCCCN1C(=O)[C@@H]2Cc3ccccc3CN2C1=O)N[C@@H](Cc1ccc(O)cc1)C(=O)O | 2.24 µM [falling, full curve] | – |
| COc1ccc(/C(C)=N\Nc2nc(-c3ccccc3)cc(=O)[nH]2)cc1 | 7.31 µM [falling, partial curve] | – |
| C/C(=N/NC(=O)c1ccccn1)c1ccco1 | 35.5 µM [falling, single point] | – |
| CC(=O)c1c(C)oc2ccc(N(C(C)=O)S(=O)(=O)c3ccc(Cl)c([N+](=O)[O-])c3)cc12 | 10 µM [falling, partial curve] | – |
| CCOC(=O)c1cnc2ccccc2c1NCCc1ccc(OC)c(OC)c1 | 11.2 µM [falling, partial curve, poor fit] | – |
| COc1ccc(NS(=O)(=O)c2cccc(C(=O)NNC(=O)CNC(=O)c3cccc(C)c3)c2)cc1 | 25.1 µM [rising, partial curve, poor fit] | – |
| C[C@H](CO)N1C[C@H](C)[C@@H](CN(C)S(C)(=O)=O)Oc2ccc(NC(=O)C3CCCCC3)cc2C1=O | 29.1 µM [rising, single point] | – |
| O=C(CSc1n[nH]c(-c2ccncc2)n1)Nc1ccccc1C(F)(F)F | 7.94 µM [falling, partial curve, poor fit] | – |
| O=C(OCCN=C1NS(=O)(=O)c2ccccc21)c1ccncc1 | 0.184 µM [falling, full curve, poor fit] | – |
| CCOc1ccccc1N(CC(=O)Nc1ccccc1C(=O)NCc1ccco1)S(C)(=O)=O | 0.103 µM [rising, full curve, poor fit] | – |
| CCOc1ccc(N=Nc2cc(C(C)C)ccc2O)cc1 | 5.8 µM [rising, partial curve, poor fit] | – |
| Cc1ccc(S(=O)(=O)Nc2nc3ccccc3nc2NCc2ccco2)cc1C | 3.16 µM [falling, partial curve, poor fit] | – |
| O=C1COc2ccc(N3C(=O)C=CC3=O)cc2N1 | 35.5 µM [falling, single point] | 12.6 µM [rising, partial curve, poor fit] |
| COCCN(C(=O)c1csnn1)C(C(=O)NC(C)(C)C)c1cccc(OC)c1 (centres undefined) | 4.11 µM [rising, single point] | – |
| Cc1onc(-c2ccccc2Cl)c1C(=O)Oc1cccc2cccnc12 | – | 22.4 µM [falling, single point] |
| O=c1[nH]c(-c2ccccn2)nc2ccccc12 | 35.5 µM [rising, single point] | 28.2 µM [falling, single point] |
| CCc1ccc2c(c1)C1(NN=C(c3cccc4ccccc34)S1)C(=O)N2 (centres undefined) | 5.17 µM [falling, full curve] | – |
